Source: PMC8828718
No constants are given. Whether binding was seen depends on the method and setting. Binding seen in cells or lysates may run through a third protein. Binding calls can cover weak binding; strength is not graded here. Where a sequence is shown, tags or fusion partners need not be part of it. One block for each molecule: values may come before it.

What was measured:
[1] = biological target: T1, Polo.Flag (Drosophila) (UniProt P52304); experiment: co-IP; reciprocal immunoprecipitation from lysates of S2 cells transfected with Bsd or Bsd.Q545* and Polo; IP with anti-FLAG or anti-Myc, blot with anti-Myc or anti-FLAG
T1 sequence: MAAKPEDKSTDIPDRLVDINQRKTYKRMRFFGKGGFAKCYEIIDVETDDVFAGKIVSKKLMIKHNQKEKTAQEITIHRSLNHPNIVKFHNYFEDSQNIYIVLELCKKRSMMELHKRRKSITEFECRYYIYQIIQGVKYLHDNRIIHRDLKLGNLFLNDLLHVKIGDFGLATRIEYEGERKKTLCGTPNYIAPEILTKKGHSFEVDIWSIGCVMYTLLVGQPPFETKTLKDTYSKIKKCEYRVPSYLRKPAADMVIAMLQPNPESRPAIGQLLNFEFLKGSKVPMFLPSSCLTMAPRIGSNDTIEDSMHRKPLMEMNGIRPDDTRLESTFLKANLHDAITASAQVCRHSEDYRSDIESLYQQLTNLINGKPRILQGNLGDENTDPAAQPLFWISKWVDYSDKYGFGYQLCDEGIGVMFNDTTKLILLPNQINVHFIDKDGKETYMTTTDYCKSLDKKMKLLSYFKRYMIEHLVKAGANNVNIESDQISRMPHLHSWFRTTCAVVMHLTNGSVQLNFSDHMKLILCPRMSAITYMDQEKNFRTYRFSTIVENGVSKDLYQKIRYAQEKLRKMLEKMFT

[2] = biological target: Bsd.Myc (full-length Back seat driver) (Drosophila); experiment: co-IP; immunoprecipitation screen in S2 cells transfected with Bsd and BDGP Flag-HA (FMO) plasmids, CuSO4 induction; IP with anti-FLAG or anti-Myc, Dynabeads, IP buffer with 1% NP40

binding [1]: binds
Molecule: Bsd.Myc (full-length Back seat driver) (Drosophila) (enzyme)

binding [2]: binds weakly
B1: Yp3, Flag-HA C-terminal fusion (BDGP FMO11010) (protein, UniProt P06607 20-420)
chain: SKDASNDRLKPTKWLTATELENVPSLNDITWERLENQPLEQGAKVIEKIYHVGQIKHDLTPSFVPSPSNVPVWIIKSNGQKVECKLNNYVETAKAQPGFGEDEVTIVLTGLPKTSPAQQKAMRRLIQAYVQKYNLQQLQKNAQEQQQQLKSSDYDYTSSEEAADQWKSAKAASGDLIIIDLGSTLTNFKRYAMLDVLNTGAMIGQTLIDLTNKGVPQEIIHLIGQGISAHVAGAAGNKYTAQTGHKLRRITGLDPAKVLSKRPQILGGLSRGDADFVDAIHTSTFAMGTPIRCGDVDFYPNGPSTGVPGSENVIEAVARATRYFAESVRPGSERNFPAVPANSLKQYKEQDGFGKRAYMGLQIDYDLRGDYILEVNAKSPFGQRSPAHKQAAYHGMHHAQN

binding [2]: binds weakly
B2: Jaguar (Jar, Myosin VI), Flag-HA C-terminal fusion (BDGP FMO12286) (protein, UniProt Q01989 1-1253)
chain: MLEDTQLVWVRDAAEGYIQGRITEIGAKEFEVTPTDRKYPKRTCHFDDIHSSCDGPQDHDDNCELMLLNEATFLDNLKTRYYKDKIYTYVANILIAVNPYREIKELYAPDTIKKYNGRSLGELPPHVFAIADKAIRDMRVYKLSQSIIVSGESGAGKTESTKYLLKYLCYSHDSAGPIETKILDANPVLEAFGNAKTTRNNNSSRFGKFIEVHYDAKCQVVGGYISHYLLEKSRICTQSAEERNYHVFYMLLAGAPQQLRDKLSLGKPDDYRYLSGCTQYFANAKTEQLIPGSQKSKNHQQKGPLKDPIIDDYQHFHNLDKALGRLGLSDTEKLGIYSLVAAVLHLGNIAFEEIPDDVRGGCQVSEASEQSLTITSGLLGVDQTELRTALVSRVMQSKGGGFKGTVIMVPLKIYEASNARDALAKAIYSRLFDRIVGLINQSIPFQASNFYIGVLDIAGFEYFTVNSFEQFCINYCNEKLQKFFNDNILKNEQELYKREGLNVPEITFTDNQDIIELIEAKSNGIFTLLDEESKLPKPSYSHFTAEVHKSWANHYRLGLPRSSRLKAHRTLRDEEGFLVRHFAGAVCYNTEQFIEKNNDALHASLEGLVQECDNPLLQTLFPSGSSTSVRGKLNFISVGSKFKTQLGELMEKLEQNGTNFIRCIKPNSKMIDRQFEGSLALAQLKCSGTISVLELMEHGYPSRVLFADLYSMYKSVLPPELVSLPARTFCEAMFQSLNLSAKDFKFGITKVFFRPGKFVEFDRIMRSDPENMLAIVAKVKKWLIRSRWVKSALGALCVIKLRNRIIYRNKCVLIAQRIARGFLARKQHRPRYQGIGKINKIRTNTLKTIEIASGLKMGREEIISGVNDIYRQIDDAIKKIKMNPRITQREMDSMYTVVMANMNKLTVDLNTKLKEQQQAEEQERLRKIQEALEAERAAKEAEEQRQREEIENKRLKAEMETRRKAAEAQRLRQEEEDRRAALALQEQLEKEAKDDAKYRQQLEQERRDHELALRLANESNGQVEDSPPVIRNGVNDASPMGPNKLIRSENVRAQQQALGKQKYDLSKWKYSELRDAINTSCDIELLEACRQEFHRRLKVYHAWKAKNRKRTTMDENERAPRSVMEAAFKQPPLVQPIQEIVTAQHRYFRIPFMRANAPDNTKRGLWYAHFDGQWIARQMELHADKPPILLVAGTDDMQMCELSLEETGLTRKRGAEILEHEFNREWERNGGKAYKNLGAAKPNGPAAAMQKQQ
